No constants are given. Whether binding was seen depends on the method and setting. Some binding calls cover weakened binding; strength is not graded here.
Tests used:
[1] = molecular target: native C-terminal fragment of the collagen type VI α3 chain in human serum and human amniotic fluid (around 10 kD bands) (human) (UniProt P12111); assay: competitive ELISA and western blot
[2] = molecular target: native C-terminal fragment of the collagen type VI α3 chain in human serum and human amniotic fluid (around 10 kD bands) (human) (UniProt P12111); assay: competitive ELISA and western blot on human serum pool and amniotic fluid pool

Amino acid sequences for entries named in this document (tags omitted). Residues count along the entry.
UniProt P12111, residues 3101-3177: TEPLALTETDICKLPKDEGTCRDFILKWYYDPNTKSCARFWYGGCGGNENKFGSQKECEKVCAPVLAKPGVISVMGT

binding [1]: binds
binding [2]: binds
B1: monoclonal antibody 10A3 (antibody, mouse IgG1, kappa, V domains shown)
VH: EVQLQQSGPVMVKPGTSVKTSCKASGYTFTDFNMNWVKQSHGKSLEWIGAINPHNGATSYNQKFSGKATLTVDKSSSTAYMELNSLTSDDSAVYYCARWGNGKNSWGQGTTLTVSS
VL: DVVMTQTPLSLPVNLGDQASISCRSSQRIVHSNGITFLEWYLQKPGQSPKLLIYRVSNRFSGVPDRFSGSGSGTDFTLKISRVEAEDLGLYYCFQGSHVPLTFGAGTRLELKR
notes: Mouse IgG1/kappa from hybridoma; also called the chosen antibody; HRP conjugated monoclonal antibody 10A3

Source: patent publication US20190309055A1 (NORDIC BIOSCIENCE A S, published 2019)
